For part of these data: At least one compound was matched to its structure with a doubt left. Some of these results come from one statement about several compounds together.
Experiments:
Assay type in all cases: cell-based
[1] = tested on: human embryonic stem cells (hESCs); test: Retinoic acid-induced neural differentiation of undifferentiated hESCs under defined conditions; conditions: RA 10 μM
[2] = tested on: human embryonic stem cells (hESCs); test: Other growth factors in place of bFGF for undifferentiated growth of hESCs; conditions: 20 ng/ml, absence of bFGF or 4 ng/ml bFGF, seven days
Method: All the growth factors were dissolved in a PBS buffer that contained 0.5% BSA, 1 mM DTT (Dithiothreitol) and 10% glyceral as a 10 μg/ml (500×) stock solution and stored in aliquots at −80° C. These factors were added individually to the hESC cultures at a concentration of 20 ng/ml, in the absence of bFGF or in the presence of a low concentration of bFGF (4 ng/ml). Seven days after seeding undifferentiated hESCs on laminin/collagen-coated plates, the cultures were examined.

[3] = tested on: human embryonic stem cells (hESCs); test: Growth of hESCs on purified matrix protein-coated plates; conditions: hESC media containing 20 ng/ml bFGF, first passage
From the text: (e) Characterization of hESCs maintained on matrix protein-coated plates in the defined hESC media - Determining the Minimal Essential Matrix. hESCs maintained on a laminin-coated plate have a classic undifferentiated morphology [A] (phase image) and express Oct-4 [B, C] (red). [C] is the image in [B] merged with DAPI staining of their nuclei (blue). White arrows delineate the edge of an hESC colony. The area delineated by the white square in [A] indicates the approximate area that is visualized at higher magnification in [B, C]. […] Red arrows in [D-F] indicate that the differentiated colony consisted of dense centers containing cyst-like structures and necrotic cells. Laminin, therefore, appeared to be the minimal sufficient matrix protein.
Having established that bFGF, insulin, and ascorbic acid were important minimal components of a feeder-free culture system, the growth of hESCs on purified matrix proteins, including human laminin-, fibronectin-, or collagen IV-coated plates in hESC media containing 20 ng/ml bFGF, was further examined.

Compound: CC1=C(/C=C/C(C)=C/C=C/C(C)=C/C(=O)O)C(C)(C)CCC1 [Retinoic acid]
- Oct-4 expression of large differentiated cells [1]: ceased expressing Oct-4
- SSEA-1 expression of large differentiated cells [1]: began expressing the early differentiated stage marker SSEA-1
- induction of neural differentiation from the pluripotent undifferentiated stage ([1]; defined conditions): sufficient to induce a complete sequence of neural differentiation

Compound: IGF-II: insulin-like growth factor-II
- small colonies that retained compact morphologies and continued to express Oct-4 [2]: < 30%
- colonies consisting of dense centers with cyst-like structures and necrotic cells surrounded by fibroblast-like cells ([2]; laminin/collagen-coated plates): greater than 70%

Compound: fibronectin
- hESC colonies displaying a more differentiated morphology [3]: more than 70%
- small colonies bearing a compact, undifferentiated morphology [3]: less than 30%

Compound: gelatin
- hESC colonies displaying a more differentiated morphology [3]: more than 70%
- small colonies bearing a compact, undifferentiated morphology [3]: less than 30%

Source: patent US20080241919A1, “Defined media for pluripotent stem cell culture” (The Burnham Institute of Medical Research, priority 2003, published 2008)
